Laboratory results: publication PMC10959415
Results are given in words; binding and its absence hold for the method and conditions named. In cells and extracts the contact can be indirect. A yes stands for co-enrichment or nearness to the bait. Other partners may have been found. For some assays here: Tags and fused reporters may be left off the sequences shown.

The chains behind the UniProt entries cited, without tags or fusion partners.
UniProt O70133: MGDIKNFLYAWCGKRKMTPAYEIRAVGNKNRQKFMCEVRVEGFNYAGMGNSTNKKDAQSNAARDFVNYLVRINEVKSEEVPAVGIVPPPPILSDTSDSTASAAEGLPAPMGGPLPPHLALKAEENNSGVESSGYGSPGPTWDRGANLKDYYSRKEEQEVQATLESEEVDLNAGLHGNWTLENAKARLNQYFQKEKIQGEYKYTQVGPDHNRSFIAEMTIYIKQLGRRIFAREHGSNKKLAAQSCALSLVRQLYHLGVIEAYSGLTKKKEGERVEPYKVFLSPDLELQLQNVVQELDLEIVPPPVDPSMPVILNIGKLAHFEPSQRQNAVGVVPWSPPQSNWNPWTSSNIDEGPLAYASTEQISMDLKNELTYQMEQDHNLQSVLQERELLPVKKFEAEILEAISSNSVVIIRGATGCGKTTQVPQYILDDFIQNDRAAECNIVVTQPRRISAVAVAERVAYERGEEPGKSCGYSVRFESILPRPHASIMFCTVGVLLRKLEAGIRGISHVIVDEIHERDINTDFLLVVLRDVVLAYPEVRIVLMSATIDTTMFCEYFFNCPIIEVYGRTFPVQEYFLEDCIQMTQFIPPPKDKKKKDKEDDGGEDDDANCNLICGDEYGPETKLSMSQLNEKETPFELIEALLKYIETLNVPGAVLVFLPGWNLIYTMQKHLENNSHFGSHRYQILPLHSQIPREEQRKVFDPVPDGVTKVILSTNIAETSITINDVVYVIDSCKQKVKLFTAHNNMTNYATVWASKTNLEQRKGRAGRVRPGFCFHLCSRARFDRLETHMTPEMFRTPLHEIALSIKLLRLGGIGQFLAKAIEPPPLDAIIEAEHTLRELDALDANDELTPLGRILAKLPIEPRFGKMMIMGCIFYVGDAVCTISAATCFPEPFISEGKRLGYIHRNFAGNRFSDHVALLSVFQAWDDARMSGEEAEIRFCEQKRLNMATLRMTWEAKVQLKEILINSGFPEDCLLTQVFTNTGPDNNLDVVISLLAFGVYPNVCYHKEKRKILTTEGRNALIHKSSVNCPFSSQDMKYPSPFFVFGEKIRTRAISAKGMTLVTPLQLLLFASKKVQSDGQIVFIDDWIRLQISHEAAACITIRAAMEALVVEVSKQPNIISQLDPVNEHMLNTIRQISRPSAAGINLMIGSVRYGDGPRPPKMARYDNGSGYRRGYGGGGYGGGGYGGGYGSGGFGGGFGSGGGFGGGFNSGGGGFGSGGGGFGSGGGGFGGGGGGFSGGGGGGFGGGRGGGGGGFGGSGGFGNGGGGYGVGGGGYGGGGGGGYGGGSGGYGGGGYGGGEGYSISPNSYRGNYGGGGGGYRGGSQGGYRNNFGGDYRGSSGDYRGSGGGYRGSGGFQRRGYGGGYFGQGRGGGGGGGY
UniProt P19091: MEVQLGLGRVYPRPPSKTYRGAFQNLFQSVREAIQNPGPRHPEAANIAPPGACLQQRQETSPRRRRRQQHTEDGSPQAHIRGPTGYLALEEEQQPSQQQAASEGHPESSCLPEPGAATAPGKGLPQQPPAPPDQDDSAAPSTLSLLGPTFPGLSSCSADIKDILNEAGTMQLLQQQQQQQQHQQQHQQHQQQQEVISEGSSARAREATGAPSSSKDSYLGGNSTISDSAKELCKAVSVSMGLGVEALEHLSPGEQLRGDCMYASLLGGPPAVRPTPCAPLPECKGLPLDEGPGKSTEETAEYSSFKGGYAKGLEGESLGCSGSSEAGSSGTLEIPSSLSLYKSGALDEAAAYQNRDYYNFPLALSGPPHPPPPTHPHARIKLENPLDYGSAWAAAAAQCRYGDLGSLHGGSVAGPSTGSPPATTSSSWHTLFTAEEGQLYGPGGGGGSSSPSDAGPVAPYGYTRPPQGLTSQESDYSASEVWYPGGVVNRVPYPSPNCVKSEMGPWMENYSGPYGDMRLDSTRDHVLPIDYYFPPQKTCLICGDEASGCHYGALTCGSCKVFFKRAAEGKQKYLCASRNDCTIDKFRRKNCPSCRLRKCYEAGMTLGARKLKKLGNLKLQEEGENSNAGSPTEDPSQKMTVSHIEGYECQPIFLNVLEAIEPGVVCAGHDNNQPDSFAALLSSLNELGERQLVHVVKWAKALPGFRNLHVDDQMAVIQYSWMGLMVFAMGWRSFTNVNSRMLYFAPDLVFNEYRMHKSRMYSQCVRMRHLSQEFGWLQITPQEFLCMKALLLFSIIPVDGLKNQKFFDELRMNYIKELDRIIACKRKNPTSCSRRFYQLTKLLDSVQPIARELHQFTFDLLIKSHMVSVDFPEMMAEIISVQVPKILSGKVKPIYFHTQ
UniProt P45448: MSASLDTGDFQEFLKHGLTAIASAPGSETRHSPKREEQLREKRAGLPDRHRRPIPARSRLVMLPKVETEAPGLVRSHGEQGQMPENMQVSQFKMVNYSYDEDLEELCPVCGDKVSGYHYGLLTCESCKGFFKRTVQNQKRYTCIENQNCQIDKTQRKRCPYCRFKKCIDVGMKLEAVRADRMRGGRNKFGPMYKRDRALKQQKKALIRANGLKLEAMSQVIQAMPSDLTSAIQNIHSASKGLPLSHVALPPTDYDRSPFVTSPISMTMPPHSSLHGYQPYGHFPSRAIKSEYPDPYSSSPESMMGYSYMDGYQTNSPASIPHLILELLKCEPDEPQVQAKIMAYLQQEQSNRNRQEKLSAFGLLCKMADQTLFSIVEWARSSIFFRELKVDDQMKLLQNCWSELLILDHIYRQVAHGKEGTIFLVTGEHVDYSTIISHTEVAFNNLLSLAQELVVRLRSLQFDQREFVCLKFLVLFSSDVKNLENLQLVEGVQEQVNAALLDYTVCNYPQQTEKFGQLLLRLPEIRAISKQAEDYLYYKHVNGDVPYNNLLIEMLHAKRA
UniProt O09106: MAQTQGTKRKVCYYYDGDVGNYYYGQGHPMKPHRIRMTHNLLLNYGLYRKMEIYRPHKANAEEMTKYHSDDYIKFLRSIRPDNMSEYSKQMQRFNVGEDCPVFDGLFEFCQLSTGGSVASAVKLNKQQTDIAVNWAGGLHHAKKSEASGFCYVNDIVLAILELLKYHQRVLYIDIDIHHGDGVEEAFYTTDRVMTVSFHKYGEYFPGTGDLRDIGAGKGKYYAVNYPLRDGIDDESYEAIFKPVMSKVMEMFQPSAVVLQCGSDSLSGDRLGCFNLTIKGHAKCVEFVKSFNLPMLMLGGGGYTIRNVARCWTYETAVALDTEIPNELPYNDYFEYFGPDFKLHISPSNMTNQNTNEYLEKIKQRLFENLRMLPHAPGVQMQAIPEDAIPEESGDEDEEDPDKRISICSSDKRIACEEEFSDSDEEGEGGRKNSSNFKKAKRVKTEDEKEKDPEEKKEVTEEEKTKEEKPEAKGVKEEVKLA
UniProt P23198: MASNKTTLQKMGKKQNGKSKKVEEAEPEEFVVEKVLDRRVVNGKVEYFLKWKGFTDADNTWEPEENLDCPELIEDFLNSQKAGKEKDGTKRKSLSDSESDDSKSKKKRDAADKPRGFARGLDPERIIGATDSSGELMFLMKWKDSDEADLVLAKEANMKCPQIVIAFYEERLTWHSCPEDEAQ
UniProt P22561: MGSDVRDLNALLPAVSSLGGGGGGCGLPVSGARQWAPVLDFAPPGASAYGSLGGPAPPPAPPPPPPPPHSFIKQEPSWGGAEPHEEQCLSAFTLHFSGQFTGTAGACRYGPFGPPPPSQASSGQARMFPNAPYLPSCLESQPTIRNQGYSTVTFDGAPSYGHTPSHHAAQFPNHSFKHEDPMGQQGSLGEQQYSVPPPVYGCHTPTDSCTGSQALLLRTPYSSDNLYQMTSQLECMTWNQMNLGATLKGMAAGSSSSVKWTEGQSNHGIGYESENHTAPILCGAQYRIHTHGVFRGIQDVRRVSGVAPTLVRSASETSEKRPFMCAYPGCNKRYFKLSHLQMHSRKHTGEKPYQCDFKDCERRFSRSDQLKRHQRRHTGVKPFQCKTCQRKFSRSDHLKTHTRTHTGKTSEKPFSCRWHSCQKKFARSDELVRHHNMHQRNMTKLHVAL
UniProt Q8BK63: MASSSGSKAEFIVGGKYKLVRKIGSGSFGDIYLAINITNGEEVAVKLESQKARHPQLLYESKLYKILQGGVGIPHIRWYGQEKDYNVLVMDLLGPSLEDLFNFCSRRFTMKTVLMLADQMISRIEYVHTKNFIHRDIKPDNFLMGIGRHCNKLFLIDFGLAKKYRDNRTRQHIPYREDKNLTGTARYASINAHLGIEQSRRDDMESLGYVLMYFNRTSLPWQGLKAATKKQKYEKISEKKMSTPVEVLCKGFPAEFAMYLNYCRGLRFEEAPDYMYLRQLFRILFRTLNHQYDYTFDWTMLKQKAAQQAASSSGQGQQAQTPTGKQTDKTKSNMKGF
UniProt P23475: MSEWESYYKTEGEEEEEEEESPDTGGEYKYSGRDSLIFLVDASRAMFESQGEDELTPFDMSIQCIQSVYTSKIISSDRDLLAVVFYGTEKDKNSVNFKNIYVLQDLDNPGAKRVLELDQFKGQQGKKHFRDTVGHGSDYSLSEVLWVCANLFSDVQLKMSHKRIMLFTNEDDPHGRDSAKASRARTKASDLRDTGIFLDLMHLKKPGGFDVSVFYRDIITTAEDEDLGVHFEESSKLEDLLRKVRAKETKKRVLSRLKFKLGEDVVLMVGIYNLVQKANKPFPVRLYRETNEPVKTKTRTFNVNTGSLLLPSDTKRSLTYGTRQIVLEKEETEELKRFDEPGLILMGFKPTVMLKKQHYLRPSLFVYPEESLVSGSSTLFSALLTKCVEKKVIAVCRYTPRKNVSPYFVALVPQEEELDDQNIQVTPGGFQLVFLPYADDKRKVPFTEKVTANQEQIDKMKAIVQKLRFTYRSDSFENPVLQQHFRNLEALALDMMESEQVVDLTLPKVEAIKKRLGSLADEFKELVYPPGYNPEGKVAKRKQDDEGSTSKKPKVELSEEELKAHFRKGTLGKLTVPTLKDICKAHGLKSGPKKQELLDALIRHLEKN
UniProt P42227: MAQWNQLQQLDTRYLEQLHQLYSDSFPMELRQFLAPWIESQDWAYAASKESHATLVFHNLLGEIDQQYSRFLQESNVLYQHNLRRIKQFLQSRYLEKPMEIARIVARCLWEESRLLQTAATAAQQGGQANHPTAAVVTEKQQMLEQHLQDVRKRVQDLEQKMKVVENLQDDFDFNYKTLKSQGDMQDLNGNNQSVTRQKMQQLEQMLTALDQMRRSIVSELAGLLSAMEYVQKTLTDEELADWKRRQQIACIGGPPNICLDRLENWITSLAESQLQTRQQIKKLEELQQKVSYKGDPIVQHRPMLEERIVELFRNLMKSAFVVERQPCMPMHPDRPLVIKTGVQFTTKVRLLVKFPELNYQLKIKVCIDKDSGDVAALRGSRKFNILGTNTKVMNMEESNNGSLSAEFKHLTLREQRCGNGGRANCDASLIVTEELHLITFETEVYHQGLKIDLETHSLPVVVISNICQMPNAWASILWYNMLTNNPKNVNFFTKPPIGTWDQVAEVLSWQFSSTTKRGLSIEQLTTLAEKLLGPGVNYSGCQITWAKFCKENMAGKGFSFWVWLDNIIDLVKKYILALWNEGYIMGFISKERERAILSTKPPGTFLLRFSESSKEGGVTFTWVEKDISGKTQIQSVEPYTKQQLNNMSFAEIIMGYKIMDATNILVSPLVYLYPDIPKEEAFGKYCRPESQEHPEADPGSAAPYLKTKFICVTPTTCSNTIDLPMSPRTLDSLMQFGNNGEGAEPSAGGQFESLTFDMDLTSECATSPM
UniProt Q08369: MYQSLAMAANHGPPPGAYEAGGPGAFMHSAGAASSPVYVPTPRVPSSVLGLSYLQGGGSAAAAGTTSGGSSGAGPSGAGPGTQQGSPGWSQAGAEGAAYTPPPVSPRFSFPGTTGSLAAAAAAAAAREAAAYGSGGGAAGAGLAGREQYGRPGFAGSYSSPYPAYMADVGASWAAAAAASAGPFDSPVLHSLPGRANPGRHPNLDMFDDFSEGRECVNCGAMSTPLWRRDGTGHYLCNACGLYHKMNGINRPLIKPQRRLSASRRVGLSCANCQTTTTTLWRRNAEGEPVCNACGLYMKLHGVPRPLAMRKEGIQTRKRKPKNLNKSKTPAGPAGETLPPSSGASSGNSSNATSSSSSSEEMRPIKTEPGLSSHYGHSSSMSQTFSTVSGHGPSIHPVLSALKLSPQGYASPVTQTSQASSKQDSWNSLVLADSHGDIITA
UniProt Q9WV02: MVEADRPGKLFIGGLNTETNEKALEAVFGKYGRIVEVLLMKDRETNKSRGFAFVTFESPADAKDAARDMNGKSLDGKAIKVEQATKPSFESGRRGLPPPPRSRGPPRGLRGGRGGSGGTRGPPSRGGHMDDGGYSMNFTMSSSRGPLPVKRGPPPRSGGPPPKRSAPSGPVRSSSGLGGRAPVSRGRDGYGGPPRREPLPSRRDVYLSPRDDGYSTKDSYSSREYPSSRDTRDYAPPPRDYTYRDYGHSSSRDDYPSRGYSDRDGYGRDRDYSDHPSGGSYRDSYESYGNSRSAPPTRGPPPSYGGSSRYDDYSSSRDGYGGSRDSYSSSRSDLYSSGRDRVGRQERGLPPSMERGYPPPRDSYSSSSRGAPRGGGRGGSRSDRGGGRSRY

T1: forkhead box L2 (FOXL2) (mouse (endogenous in mouse ovary)) (UniProt O88470)
T1 sequence: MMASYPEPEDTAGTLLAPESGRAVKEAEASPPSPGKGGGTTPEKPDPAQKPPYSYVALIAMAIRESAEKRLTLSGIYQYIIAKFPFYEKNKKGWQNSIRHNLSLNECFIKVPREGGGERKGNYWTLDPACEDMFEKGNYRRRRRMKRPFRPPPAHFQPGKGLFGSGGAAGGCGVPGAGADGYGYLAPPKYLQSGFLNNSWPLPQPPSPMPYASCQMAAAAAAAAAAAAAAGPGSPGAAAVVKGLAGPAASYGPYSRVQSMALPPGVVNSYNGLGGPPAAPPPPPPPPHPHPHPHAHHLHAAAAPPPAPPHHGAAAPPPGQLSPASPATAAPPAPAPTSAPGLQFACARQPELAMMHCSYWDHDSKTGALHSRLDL

B1: ATF1 (protein, UniProt P81269 1-269)
chain: MEDSHKSNTTETASQPGSTVAGPHVSQIVHQVSSLSESEESQDSSDSIGSSQKAHGILARRPSYRKILKDLSSEDTRGRKGEGENPSISAITSMSVPAPIYQTSSGQYIAIAPNGALQLASPSTDGVQALQTLTMTNSSSTQQGTILQYAQTSDGQQILVPSNQVVVQTASGDMQTYQIRTTPSATSLPQTVVMTSPVTLASQTTKTDDPQLRREIRLMKNREAARECRRKKKEYVKCLENRVAVLENQNKTLIEELKTLKDLYSHKSV
B2: TCF21 (protein, UniProt O35437 1-179)
chain: MSTGSLSDVEDLQEVEMLDCDSLKVDSNKEFGTSNESTEEGSNCENGSPQKGRGGLGKRRKAPTKKSPLSGVSQEGKQVQRNAANARERARMRVLSKAFSRLKTTLPWVPPDTKLSKLDTLRLASSYIAHLRQILANDKYENGYIHPVNLTWPFMVAGKPENDLKEVVTANRLCGTTAS
B3: SRRT (protein, UniProt Q99MR6 1-875)
chain: MGDSDDEYDRRRRDKFRRERSDYDRSRERDERRRGDDWNDREWDRGRERRSRGEYRDYDRNRRERFSPPRHELSPPQKRMRRDWDEHSSDPYHSGYDMPYAGGGGGPTYGPPQPWGHPDVHIMQHHVLPIQARLGSIAEIDLGVPPPIMKSFKEFLLSLDDSVDETEAVKRYNDYKLDFRRQQMQDFFLAHKDEEWFRSKYHPDEVGKRRQEARGALQNRLKVFLSLMESGWFDNLLLDIDKADAIVKMLDAAVIKMEGGTENDLRILEQEEEEEQAGKTGEASKKEEARAGPALGEGERKANDKDEKKEDGKQAENDSSNDDKTKKSEGDGDKEEKKEEAEKEAKKSKKRNRKQSGDDSFDEGSVSESESESEGGQAEEEKEEAEEALKEKEKPKEEEKEKPKDAAGLECKPRPLHKTCSLFMRNIAPNISRAEIISLCKRYPGFMRVALSEPQPERRFFRRGWVTFDRSVNIKEICWNLQNIRLRECELSPGVNRDLTRRVRNINGITQHKQIVRNDIKLAAKLIHTLDDRTQLWASEPGTPPVPTSLPSQNPILKNITDYLIEEVSAEEEELLGSSGGPPPEEPPKEGNPAEINVERDEKLIKVLDKLLLYLRIVHSLDYYNTCEYPNEDEMPNRCGIIHVRGPMPPNRISHGEVLEWQKTFEEKLTPLLSVRESLSEEEAQKMGRKDPEQEVEKFVTSNTQELGKDKWLCPLSGKKFKGPEFVRKHIFNKHAEKIEEVKKEVAFFNNFLTDAKRPALPEIKPAQPPGPAQILPPGLTPGLPYPHQTPQGLMPYGQPRPPILGYGAGAVRPAVPTGGPPYPHAPYGAGRGNYDAFRGQGGYPGKPRNRMVRGDPRAIVEYRDLDAPDDVDFF
B4: histone deacetylase 6 (HDAC6) (protein, UniProt Q9Z2V5 1-1149)
chain: MTSTGQDSSTRQRKSRHNPQSPLQESSATLKRGGKKCAVPHSSPNLAEVKKKGKMKKLSQPAEEDLVVGLQGLDLNPETRVPVGTGLVFDEQLNDFHCLWDDSFPESPERLHAIREQLILEGLLGRCVSFQARFAEKEELMLVHSLEYIDLMETTQYMNEGELRVLAETYDSVYLHPNSYSCACLATGSVLRLVDALMGAEIRNGMAVIRPPGHHAQHNLMDGYCMFNHLAVAARYAQKKHRIQRVLIVDWDVHHGQGTQFIFDQDPSVLYFSIHRYEHGRFWPHLKASNWSTIGFGQGQGYTINVPWNQTGMRDADYIAAFLHILLPVASEFQPQLVLVAAGFDALHGDPKGEMAATPAGFAHLTHLLMGLAGGKLILSLEGGYNLRALAKGVSASLHTLLGDPCPMLESCVVPCASAQTSIYCTLEALEPFWEVLERSVETQEEDEVEEAVLEEEEEEGGWEATALPMDTWPLLQNRTGLVYDEKMMSHCNLWDNHHPETPQRILRIMCHLEEVGLAARCLILPARPALDSELLTCHSAEYVEHLRTTEKMKTRDLHREGANFDSIYICPSTFACAKLATGAACRLVEAVLSGEVLNGIAVVRPPGHHAEPNAACGFCFFNSVAVAARHAQIIAGRALRILIVDWDVHHGNGTQHIFEDDPSVLYVSLHRYDRGTFFPMGDEGASSQVGRDAGIGFTVNVPWNGPRMGDADYLAAWHRLVLPIAYEFNPELVLISAGFDAAQGDPLGGCQVTPEGYAHLTHLLMGLAGGRIILILEGGYNLASISESMAACTHSLLGDPPPQLTLLRPPQSGALVSISEVIQVHRKYWRSLRLMKMEDKEECSSSRLVIKKLPPTASPVSAKEMTTPKGKVPEESVRKTIAALPGKESTLGQAKSKMAKAVLAQGQSSEQAAKGTTLDLATSKETVGGATTDLWASAAAPENFPNQTTSVEALGETEPTPPASHTNKQTTGASPLQGVTAQQSLQLGVLSTLELSREAEEAHDSEEGLLGEAAGGQDMNSLMLTQGFGDFNTQDVFYAVTPLSWCPHLMAVCPIPAAGLDVSQPCKTCGTVQENWVCLTCYQVYCSRYVNAHMVCHHEASEHPLVLSCVDLSTWCYVCQAYVHHEDLQDVKNAAHQNKFGEDMPHSH
B5: SF3A1 (protein, UniProt Q8K4Z5 1-791)
chain: MQAGPVQAVPPPPPVATESKQPIEEEASSKEDPTPSKPVVGIIYPPPEVRNIVDKTASFVARNGPEFEARIRQNEINNPKFNFLNPNDPYHAYYRHKVSEFKEGKAQEPSAAIPKVMQQQQQATQQQLPQKVQAQVIQETIVPKEPPPEFEFIADPPSISAFDLDVVKLTAQFVARNGRQFLTQLMQKEQRNYQFDFLRPQHSLFNYFTKLVEQYTKILIPPKGLFSKLKKEAENPREVLDQVCYRVEWAKFQERERKKEEEEKEKERVAYAQIDWHDFVVVETVDFQPNEQGNFPPPTTPEELGARILIQERYEKFGESEEVEMEVESDEEDQEKAEETPSQLDQDTQVQDMDEGSDDEEEGQKVPPPPETPMPPPLPPTPDQVIVRKDYDPKASKPLPPAPAPDEYLVSPITGEKIPASKMQEHMRIGLLDPRWLEQRDRSIREKQSDDEVYAPGLDIESSLKQLAERRTDIFGVEETAIGKKIGEEEIQKPEEKVTWDGHSGSMARTQQAAQANITLQEQIEAIHKAKGLVPEDDTKEKIGPSKPNEIPQQPPPPSSATNIPSSAPPITSVPRPPAMPPPVRTTVVSAVPVMPRPPMASVVRLPPGSVIAPMPPIIHAPRINVVPMPPAAPPIMAPRPPPMIVPTAFVPAPPVAPVPAPAPMPPVHPPPPMEDEPPSKKLKTEDSLMPEEEFLRRNKGPVSIKVQVPNMQDKTEWKLNGQGLVFTLPLTDQVSVIKVKIHEATGMPAGKQKLQYEGIFIKDSNSLAYYNMASGAVIHLALKERGGRKK
B6: WTAP1, a Wilms’ tumor 1–associating protein (protein, UniProt Q9ER69 1-396)
chain: MTNEEPLPKKVRLSETDFKVMARDELILRWKQYEAYVQALEGKYTDLNSNDVTGLRESEEKLKQQQQESARRENILVMRLATKEQEMQECTTQIQYLKQVQQPSVAQLRSTMVDPAINLFFLKMKGELEQTKDKLEQAQNELSAWKFTPDSQTGKKLMAKCRMLIQENQELGRQLSQGRIAQLEAELALQKKYSEELKSSQDELNDFIIQLDEEVEGMQSTILVLQQQLKETRQQLAQYQQQQSQASAPSTSRTTSSEPVDQAEVTSKDCSRLANGPSNGSSSRQRTSGSGFHREGSTPEDDFPSSSGNGNKASNSSEERTGRGGSSYINPLSAGYESVDSPTGSENSLTHHSNDTDSSHDPQEEKAVSGKGNRTVGSRHVQNGLDSSVNVQGAVL
B7: CXXC5 (protein, UniProt Q91WA4 1-317)
chain: MSSLGGGSQDAGGSSSSSNTNSSSGSGQKAGGTDKSTAVAATTAPTSVADDAPPPERRNKSGIISEPLNKSLRRSRPLSHYSSFGSSGGGGSMMGVESADKAAAAAASLLANGHDLAAAMAVDKSNPTSKHKSGAVASLLSKAERATELAAEGQLTLQQFAQSTEMLKRVVQEHLPLMSEAGAGLPDMEAVAGAEALNGQSDFPYLGAFPINPGLFIMTPAGVFLAESALHMAGLAEYPMQGELASAISSGKKKRKRCGMCAPCRRRINCEQCSSCRNRKTGHQICKFRKCEELKKKPSAALEKVMLPSGAAFRWFQ

Each molecule was assayed against T1, forkhead box L2 (FOXL2) (mouse (endogenous in mouse ovary)) (assay: affinity purification with mass spectrometry; ChIP-SICAP: formaldehyde-fixed (1.5%, 15 min), sonicated chromatin of whole mouse ovaries at E14.5, 1W and 8W; overnight immunoprecipitation at 4°C with a FOXL2 antibody, protein G Dynabeads, DNA biotinylated and captured on streptavidin beads, bound proteins digested and identified by mass spectrometry; enrichment over a no-antibody control, n = 2; detects proteins colocalizing with FOXL2 on the same chromatin fragments).

binding, binds:
DNA helicase DHX9 (from UniProt O70133 1-1380)
Androgen receptor (AR) (from UniProt P19091 1-899)
nuclear receptor subfamily 5 group A member 2 (NR5A2) (from UniProt P45448 1-560)
DDX17 (from UniProt Q501J6 1-650)
CTNNB1 (β-catenin) (from UniProt Q02248 1-781)
SWI/SNF-related matrix-associated actin-dependent regulator of chromatin subfamily D member 2 (SMARCD2) (from UniProt Q99JR8 1-531)
SRSF1 (from UniProt Q6PDM2 1-248)
HDAC1 (from UniProt O09106 1-482)
CBX3 (from UniProt P23198 1-183)
Wilms’ tumor suppressor (WT1) (from UniProt P22561 1-449)
estrogen receptor 2 (ESR2) (from UniProt O08537 1-530)
casein kinase I isoform alpha (CSNK1A1) (from UniProt Q8BK63 1-337)
x-ray repair cross complementing 6 (XRCC6) (from UniProt P23475 1-608)
signal transducer and activator of transcription 3 (STAT3) (from UniProt P42227 1-770)
GATA4 (from UniProt Q08369 1-441)
RBMX (from UniProt Q9WV02 1-391)

Target: T1, forkhead box L2 (FOXL2) (mouse (endogenous in mouse ovary))
Assay: as above
Remark: another data set of the same source

binding, binds:
B1
B2
B3
B4
B5
B6
B7
